The source gives many values for each of these; only a part stands here.
Tested on: RA patients
Assay: LDL determination, Study 1 (RA patients, add-on to MTX)
Type: in vivo, human
Conditions: Study 1 24 weeks results
Protocol: Double-blind, placebo-controlled add on study in subjects with moderately to severely active RA who have an inadequate response to methotrexate (MTX) (oral or parenteral).
595 subjects randomized to one of 6 dose regimens of Compound 1 (dosed as a [Compound 1:HCl:3H2O]) (3 dose levels administered either once or twice daily) or placebo on top of each subject's stable dose of MTX.
Compound 1 (dosed as a [Compound 1:HCl:3H2O]) is dosed for twelve weeks once daily (q.d.) (50 mg, 100 mg or 200 mg) or twice daily (b.i.d.) (25 mg, 50 mg or 100 mg); or placebo.
At Week 12, the subjects on placebo who have not achieved 20% improvement in swollen joint count (SJC66) and tender joint count (TJC68) are re-randomized automatically to receive Compound 1 (dosed as a [Compound 1:HCl:3H2O]) either at 100 mg q.d. or 50 mg b.i.d. doses in a blinded fashion; subjects on 50 mg q.d. who have not achieved 20% improvement in SJC66 and TJC68 will be assigned to 100 mg q.d. and subjects on 25 mg b.i.d. that have not achieved a 20% improvement in SJC66 and TJC68 will be assigned to 50 mg b.i.d. Subjects who switch treatment at week 12 are handled as if they discontinued at week 12 for the purpose of statistical analysis, whereas subjects in the other groups will maintain their randomized treatment until Week 24.
The determination of [LDL]-cholesterol is made using an automated method taking advantage of the selective micellary solubilization of [LDL]-cholesterol by a nonionic detergent and the interaction of a sugar compound and lipoproteins (VLDL and chylomicrons).
When a detergent is included in the enzymatic method for cholesterol determination (cholesterol esterase, cholesterol oxidase coupling reaction), the relative reactivities of cholesterol in the lipoprotein fractions increase in this order: [HDL]<chylomicrons <VLDL <[LDL]. In the presence of Mg^2+, a sugar compound markedly reduces the enzymatic reaction of the cholesterol measurement in VLDL and chylomicrons. The combination of a sugar compound with detergent enables the selective determination of [LDL]-cholesterol in serum. (Friedewald et al., 1972; Rifai et al., 1992)
Homogeneous enzymatic colorimetric assay.
In the presence of peroxidase, the hydrogen peroxide generated reacts with 4-aminoantipyrine and Sodium N-(2-hydroxy-3-sulfopropyl)-3,5-dimethoxyaniline (HSDA) to form a purple-blue dye.
The color intensity of this dye is directly proportional to the cholesterol concentration and is measured photometrically.
Human serum and plasma samples [LDL] determination was done on a Roche/Hitachi Cobas c 701/702 system which automatically calculate the analyte concentration of each sample. Samples containing precipitates are centrifuged before performing the assay.

[1] = continued 50 mg b.i.d., week 12
[2] = continued 50 mg b.i.d., week 16
[3] = continued 50 mg b.i.d., week 20
[4] = continued 50 mg b.i.d., week 24
[5] = continued 100 mg b.i.d., week 1
[6] = continued 100 mg b.i.d., week 2
[7] = continued 100 mg b.i.d., week 4
[8] = continued 100 mg b.i.d., week 8
[9] = continued 100 mg b.i.d., week 12
[10] = continued 100 mg b.i.d., week 16
[11] = continued 100 mg b.i.d., week 20
[12] = continued 100 mg b.i.d., week 24
[13] = increased from 25 mg b.i.d. to 50 mg b.i.d at 12 weeks, week 1
[14] = increased from 25 mg b.i.d. to 50 mg b.i.d at 12 weeks, week 2
[15] = increased from 25 mg b.i.d. to 50 mg b.i.d at 12 weeks, week 4
[16] = increased from 25 mg b.i.d. to 50 mg b.i.d at 12 weeks, week 8
[17] = increased from 25 mg b.i.d. to 50 mg b.i.d at 12 weeks, week 12
[18] = increased from 25 mg b.i.d. to 50 mg b.i.d at 12 weeks, week 16
[19] = increased from 25 mg b.i.d. to 50 mg b.i.d at 12 weeks, week 20
[20] = increased from 25 mg b.i.d. to 50 mg b.i.d at 12 weeks, week 24
[21] = increased from 50 mg q.d. to 100 mg q.d. at 12 weeks, week 1
[22] = increased from 50 mg q.d. to 100 mg q.d. at 12 weeks, week 2
[23] = increased from 50 mg q.d. to 100 mg q.d. at 12 weeks, week 4
[24] = increased from 50 mg q.d. to 100 mg q.d. at 12 weeks, week 8
[25] = increased from 50 mg q.d. to 100 mg q.d. at 12 weeks, week 12
[26] = increased from 50 mg q.d. to 100 mg q.d. at 12 weeks, week 16
[27] = increased from 50 mg q.d. to 100 mg q.d. at 12 weeks, week 20
[28] = increased from 50 mg q.d. to 100 mg q.d. at 12 weeks, week 24
[29] = placebo switched to 100 mg q.d. at week 12, week 16
[30] = placebo switched to 100 mg q.d. at week 12, week 20
[31] = placebo switched to 100 mg q.d. at week 12, week 24

SMILES: O=C(Nc1nc2cccc(-c3ccc(CN4CCS(=O)(=O)CC4)cc3)n2n1)C1CC1 [Compound 1, cyclopropanecarboxylic acid {5-[4-(1,1-dioxo-thiomorpholin-4-ylmethyl)-phenyl]-[1,2,4]triazolo[1,5-a]pyridin-2yl}-amide]
- [LDL] Mean CFB (continued 25 mg b.i.d, week 1): 0.06 mmol/L
- [LDL] Median CFB (continued 25 mg b.i.d, week 1): 0.08 mmol/L
- [LDL] Mean CFB (continued 25 mg b.i.d, week 2): 0.06 mmol/L
- [LDL] Median CFB (continued 25 mg b.i.d, week 2): 0.09 mmol/L
- [LDL] Mean CFB (continued 25 mg b.i.d, week 4): 0.05 mmol/L
- [LDL] Median CFB (continued 25 mg b.i.d, week 4): 0.03 mmol/L
- [LDL] Mean CFB (continued 25 mg b.i.d, week 8): 0.05 mmol/L
- [LDL] Median CFB (continued 25 mg b.i.d, week 8): 0.06 mmol/L
- [LDL] Mean CFB (continued 25 mg b.i.d, week 12): 0.14 mmol/L
- [LDL] Median CFB (continued 25 mg b.i.d, week 12): 0.13 mmol/L
- [LDL] Mean CFB (continued 25 mg b.i.d, week 16): 0.10 mmol/L
- [LDL] Median CFB (continued 25 mg b.i.d, week 16): 0.06 mmol/L
- [LDL] Mean CFB (continued 25 mg b.i.d, week 20): 0.14 mmol/L
- [LDL] Median CFB (continued 25 mg b.i.d, week 20): 0.14 mmol/L
- [LDL] Mean CFB (continued 25 mg b.i.d, week 24): 0.14 mmol/L
- [LDL] Median CFB (continued 25 mg b.i.d, week 24): 0.13 mmol/L
- [LDL] Mean CFB (continued 50 mg b.i.d., week 1): 0.10 mmol/L
- [LDL] Median CFB (continued 50 mg b.i.d., week 1): 0.17 mmol/L
- [LDL] Mean CFB (continued 50 mg b.i.d., week 2): 0.04 mmol/L
- [LDL] Median CFB (continued 50 mg b.i.d., week 2): 0.10 mmol/L
- [LDL] Mean CFB (continued 50 mg b.i.d., week 4): 0.14 mmol/L
- [LDL] Median CFB (continued 50 mg b.i.d., week 4): 0.04 mmol/L
- [LDL] Mean CFB (continued 50 mg b.i.d., week 8): 0.07 mmol/L
- [LDL] Median CFB (continued 50 mg b.i.d., week 8): 0.10 mmol/L
- [LDL] Mean CFB [1]: 0.05 mmol/L
- [LDL] Median CFB [1]: -0.02 mmol/L
- [LDL] Mean CFB [2]: 0.10 mmol/L
- [LDL] Median CFB [2]: 0.09 mmol/L
- [LDL] Mean CFB [3]: 0.14 mmol/L
- [LDL] Median CFB [3]: 0.17 mmol/L
- [LDL] Mean CFB [4]: 0.19 mmol/L
- [LDL] Median CFB [4]: 0.21 mmol/L
- [LDL] Mean CFB [5]: 0.20 mmol/L
- [LDL] Median CFB [5]: 0.18 mmol/L
- [LDL] Mean CFB [6]: 0.15 mmol/L
- [LDL] Median CFB [6]: 0.08 mmol/L
- [LDL] Mean CFB [7]: 0.17 mmol/L
- [LDL] Median CFB [7]: 0.12 mmol/L
- [LDL] Mean CFB [8]: 0.31 mmol/L
- [LDL] Median CFB [8]: 0.22 mmol/L
- [LDL] Mean CFB [9]: 0.27 mmol/L
- [LDL] Median CFB [9]: 0.26 mmol/L
- [LDL] Mean CFB [10]: 0.21 mmol/L
- [LDL] Median CFB [10]: 0.21 mmol/L
- [LDL] Mean CFB [11]: 0.16 mmol/L
- [LDL] Median CFB [11]: 0.11 mmol/L
- [LDL] Mean CFB [12]: 0.30 mmol/L
- [LDL] Median CFB [12]: 0.24 mmol/L
- [LDL] Mean CFB (continued 200 mg q.d., week 1): 0.15 mmol/L
- [LDL] Median CFB (continued 200 mg q.d., week 1): 0.16 mmol/L
- [LDL] Mean CFB (continued 200 mg q.d., week 2): 0.11 mmol/L
- [LDL] Median CFB (continued 200 mg q.d., week 2): 0.13 mmol/L
- [LDL] Mean CFB (continued 200 mg q.d., week 4): 0.13 mmol/L
- [LDL] Median CFB (continued 200 mg q.d., week 4): 0.09 mmol/L
- [LDL] Mean CFB (continued 200 mg q.d., week 8): 0.16 mmol/L
- [LDL] Median CFB (continued 200 mg q.d., week 8): 0.18 mmol/L
- [LDL] Mean CFB (continued 200 mg q.d., week 12): 0.19 mmol/L
- [LDL] Median CFB (continued 200 mg q.d., week 12): 0.14 mmol/L
- [LDL] Mean CFB (continued 200 mg q.d., week 16): 0.14 mmol/L
- [LDL] Median CFB (continued 200 mg q.d., week 16): 0.07 mmol/L
- [LDL] Mean CFB (continued 200 mg q.d., week 20): 0.17 mmol/L
- [LDL] Median CFB (continued 200 mg q.d., week 20): 0.14 mmol/L
- [LDL] Mean CFB [13]: -0.07 mmol/L
- [LDL] Median CFB [13]: -0.02 mmol/L
- [LDL] Mean CFB [14]: -0.05 mmol/L
- [LDL] Median CFB [14]: -0.05 mmol/L
- [LDL] Mean CFB [15]: -0.25 mmol/L
- [LDL] Median CFB [15]: -0.27 mmol/L
- [LDL] Mean CFB [16]: -0.42 mmol/L
- [LDL] Median CFB [16]: -0.40 mmol/L
- [LDL] Mean CFB [17]: -0.17 mmol/L
- [LDL] Median CFB [17]: -0.15 mmol/L
- [LDL] Mean CFB [18]: -0.13 mmol/L
- [LDL] Median CFB [18]: -0.16 mmol/L
- [LDL] Mean CFB [19]: -0.48 mmol/L
- [LDL] Median CFB [19]: -0.26 mmol/L
- [LDL] Mean CFB [20]: -0.25 mmol/L
- [LDL] Median CFB [20]: -0.17 mmol/L
- [LDL] Mean CFB [21]: -0.02 mmol/L
- [LDL] Median CFB [21]: -0.02 mmol/L
- [LDL] Mean CFB [22]: 0.15 mmol/L
- [LDL] Median CFB [22]: -0.04 mmol/L
- [LDL] Mean CFB [23]: -0.03 mmol/L
- [LDL] Median CFB [23]: -0.01 mmol/L
- [LDL] Mean CFB [24]: 0.02 mmol/L
- [LDL] Median CFB [24]: -0.07 mmol/L
- [LDL] Mean CFB [25]: 0.06 mmol/L
- [LDL] Median CFB [25]: 0.10 mmol/L
- [LDL] Mean CFB [26]: 0.12 mmol/L
- [LDL] Median CFB [26]: 0.24 mmol/L
- [LDL] Mean CFB [27]: 0.10 mmol/L
- [LDL] Median CFB [27]: 0.15 mmol/L
- [LDL] Mean CFB [28]: 0.14 mmol/L
- [LDL] Median CFB [28]: 0.20 mmol/L
- [LDL] Mean CFB [29]: -0.09 mmol/L
- [LDL] Median CFB [29]: -0.14 mmol/L
- [LDL] Mean CFB [30]: -0.05 mmol/L
- [LDL] Median CFB [30]: 0.05 mmol/L
- [LDL] Mean CFB [31]: -0.24 mmol/L
- [LDL] Median CFB [31]: -0.14 mmol/L
